PubChem BioAssay AID1224828, NIAID | 2016
Screen: 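Regulators linking TLR4 signalling to p65 nuclear translocation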 (primary screen). System: mouse RAW264.7 G9 macrophage reporter cells (GFP-p65, Tnf promoter-mCherry). Reagents: siRNA pool against mouse genes, 100 nM. Duration: 2 days siRNA transfection, then 40 min LPS before fixation. Treatment: LPS (Salmonella minnesota R595) at 10 ng/ml. Measured: 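Imaged p65 nuclear translocation ratio, normalised to the plate median, converted to robust z-scores and averaged across two replicates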. Scale: p65 translocation robust z-score: higher = more nuclear NF-kappaB p65 after LPS than the plate median; nuclear/cytoplasmic p65 ratio: higher = more nuclear NF-kappaB p65. Call rule: 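Called active when z exceeds 3.3 or falls under -1.56 (median of Tlr4 controls), giving activity score of at least 50; no calls for control wells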. Calls: active = hit (p65 shift raised or lowered); inactive = no clear change.
The deposit covers about 17,000 reagents; shown is an unselected part. Over the whole deposit, 762 (4.5%) got an active call. 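Active calls include both raised and lowered p65 entry, mostly lowered; wells with fewer than 50 cells lack a z-score.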 Raw values vary from plate to plate and are shown uncorrected.

Target gene,PubChem SID,p65 translocation robust z-score,"nuclear/cytoplasmic p65 ratio, rep 1","nuclear/cytoplasmic p65 ratio, rep 2",low cell count flag,outcome
Ctdp1,SID315473147,0.35,1.48,1.46,enough cells to score,inactive
Dhps,SID315481618,-0.96,1.45,1.39,enough cells to score,inactive
Tha1,SID315474319,-2.37,1.2,1.13,enough cells to score,active
Insig1,SID315478860,-0.94,1.29,1.32,enough cells to score,inactive
Mapk3,SID315470394,0.09,1.73,1.37,enough cells to score,inactive
Cd151,SID315465837,-0.2,1.42,1.37,enough cells to score,inactive
Hif1a,SID315467205,0.87,1.59,1.45,enough cells to score,inactive
Or11h4,SID315471703,,1.59,1.38,fewer than 50 cells per well; well left out of scoring,inactive
Tnk1,SID315475870,-2.36,1.36,1.08,enough cells to score,active
Sh3bgr,SID315470856,0.75,1.37,1.34,enough cells to score,inactive
Rnf216,SID315476686,-0.63,1.44,1.28,enough cells to score,inactive
Tspan8,SID315477995,-1.11,1.21,1.07,enough cells to score,inactive
Zfp326,SID315471204,0.96,1.55,1.35,enough cells to score,inactive
Or2ag2b,SID315472638,,1.35,1.17,fewer than 50 cells per well; well left out of scoring,inactive
Or5b119,SID315479992,1.28,1.67,1.71,enough cells to score,inactive
Map3k20,SID315472164,-1.23,1.58,1.16,enough cells to score,inactive
Nudt5,SID315471128,-1,1.5,1.43,enough cells to score,inactive
Dusp21,SID315474749,0.41,1.66,1.69,enough cells to score,inactive
Klk1b5,SID315467655,1.72,1.76,1.69,enough cells to score,inactive
Tns1,SID315481320,0.2,1.52,1.36,enough cells to score,inactive
Slc25a48,SID315481469,-0.18,1.51,1.28,enough cells to score,inactive
Krcc1,SID315471841,,1.31,1.27,fewer than 50 cells per well; well left out of scoring,inactive
Igflr1,SID315476304,-1.73,1.42,1.32,enough cells to score,active
Nfya,SID315468165,1.41,1.7,1.54,enough cells to score,inactive

Targets listed so far whose gene name starts with C or c (2):
Target gene,PubChem SID,p65 translocation robust z-score,"nuclear/cytoplasmic p65 ratio, rep 1","nuclear/cytoplasmic p65 ratio, rep 2",low cell count flag,outcome
Ctdp1,SID315473147,0.35,1.48,1.46,enough cells to score,inactive
Cd151,SID315465837,-0.2,1.42,1.37,enough cells to score,inactive
